These are yes or no findings as the source states them, for the method shown. Some entries that bind do so weakly or less than the wild type.
T1: human DLL3 (UniProt Q9NYJ7 27-492)
T1 chain: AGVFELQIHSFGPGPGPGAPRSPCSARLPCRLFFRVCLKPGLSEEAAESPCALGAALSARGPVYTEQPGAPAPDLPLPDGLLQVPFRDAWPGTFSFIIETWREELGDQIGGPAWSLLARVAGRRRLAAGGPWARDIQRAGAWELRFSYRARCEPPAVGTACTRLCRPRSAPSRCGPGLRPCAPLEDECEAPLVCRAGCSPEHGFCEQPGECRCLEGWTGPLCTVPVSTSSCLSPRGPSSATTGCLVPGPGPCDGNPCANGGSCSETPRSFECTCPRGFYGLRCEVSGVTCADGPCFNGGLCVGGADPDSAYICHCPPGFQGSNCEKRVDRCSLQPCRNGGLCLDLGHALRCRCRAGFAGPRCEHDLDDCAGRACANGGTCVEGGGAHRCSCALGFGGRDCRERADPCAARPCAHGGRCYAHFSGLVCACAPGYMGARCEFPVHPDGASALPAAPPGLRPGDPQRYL

B1: SC16.57 (antibody, V domains shown)
VH: EVKLVESGGDLVKPGGSLKLSCAASGFAFSSYDMSWVRQTPEKRLEWVATISSGGSYTYYPDSVKGRFTISRDNVRDTLYLQMSSLRSEDTALYYCARQAIGTYFDYWGQGTTLTVSS
VL: DIVMTQSHKFMSISVGDRVSITCKASQDVSIFVAWYQQKPGQSPKLLIYSASYRYTGVPDRFTGSGSGTDFIFTISSVQAEDLAVYYCQQHYGTPFTFGSGTKLKIR
B2: SC16.58 (antibody, V domains shown)
VH: DVQLVESGGGLVQPGGSRKLSCAASGFTFSSFGMHWVRQAPEKGLEWVAYISSGSSNIYYADTVKGRFTISRDNPKNTLFLQMTSLRSEDTAMYYCARGYYGNYDAMDYWGQGTSVTVSS
VL: DIQMTQSPASLSSSVGETVTITCRASENIYSYLAWYQQKQGKSPQLLVYNAKTLAEGVPSRFSGSGSGTQFSLKINSLQPEDFGTYYCQHHYDSPLTFGAGTKLELR
B3: SC16.61 (antibody, V domains shown)
VH: EVLLQRSGPDLVKPGASVTIPCKASGYTFTDYNMDWVKQSHGKSLEWIGNINTYNGGTIYNQKFKGKATLTVDKPSSTAYMELRSLTSEDTAVYYCARRLRYGGHYFDYWGQGTALTVSS
VL: DIVMTQSTSSLAMSVGQKVTMSCKSSQSLLNSSNQKNYLAWYQQEPGQSPKLLVSFASTRESGVPDRFTGSGSGTDFTLTISGVQAEDLAVYYCQQHYSIPLTFGAGTKLELK
B4: SC16.62 (antibody, V domains shown)
VH: EVMLVESGGDLVKPGGSLKLSCAASGFTFSSYAMSWVRQTPEKRLEWVAYISGGGDHIYYPDSVRGRFTISRDNAKDTLYLQMSSLRSEDTALYDCARVRDWYFDVWGAGTTVTVSS
VL: DIKMTQSPSSMYASLGERVTITCKASQDINSFLSWFQRKPGKSPKTLIYRANRLVDGVPSRFTGSGSGQEFSLTISSLEYEDLGIYYCLQYDEFPYTFGGGTKLEIK
B5: SC16.63 (antibody, V domains shown)
VH: QVQLQQSGTELLRPGASVKISCKATGYTFSSYWMEWVKQRPGHGLEWIGEILPGSGTTQYNEKFKGKATFTADTSSNTAYMHLSSLTSEDSAVYYCARGTNSLWGQGTLVTVSA
VL: QIVLTQSPAIMSASPGEKVTMTCSASSSVSYMYWYQQKSGTSPKRWIYDTSKLASGVPARFSGSGSGTSYSLTISSMEAEDAATYYCQQWSSNPYTFGGGTKLEIK
B6: SC16.65 (antibody, V domains shown)
VH: QVTLKESGPGILQPSQTLSLTCSFSGFSLSTSGMGVGWIRQPSGKGLEWLALIWWDDVKRYNPALKSRLTISKDASSSQVFLKIASVDTADTATYYCARIASYDYDVVYAMDYWGQGTSVSVSS
VL: QIVLTQSPALMSASPGEKVTMTCSVTSSVSYMYWYQQKPRSSPKPWIYLTSNLASGVPARFSGSGSGTSYSLTISSVEAEDAATYYCQQWRNNPFTFGSGTKVEIK
notes: murine mAb; V regions only
B7: SC16.67 (antibody, V domains shown)
VH: EVQLVETGGGLVQPKGSLKLSCAVSAFTFTTYAMNWVRQAPGKGLEWVARIRNKSNNYATYYADSVKDRFTISRDDSQSMLYLQMNNLKIEDTAMYYCVFYYDYVYWGQGTLVTVSA
VL: QAVVTQESALTTSPGETVTLTCRSSTGAVTTSNYANWIQEKPDHLFTGLIGGTNNRAPGVPARFSGSLIGDKAALTITGAQTEDEAIYFCGLWYSNHLVFGGGTKLTVL
B8: SC16.72 (antibody, V domains shown)
VH: EVQLQQSGPELVKPGASVKMSCKASGYTFTSYVMHWVKQKPGQGLEWIGYINPYNDGTKYNEKFKGKATLTSDKSSSTAYMELSSLTSEDSAVYYCARLRSRAMDYWGQGTSVTVSS
VL: ENVLTQSPAIMSASLGEKVTMSCRASSSVNYMSWYQQKSDASPKLWIYYTSNLAPGVPARFSGSGSGNSYSLTISSMEGEDAATYYCQQFTSSPYTFGGGTKLEIK
B9: SC16.73 (antibody, V domains shown)
VH: QVQLQQSGAELMKPGASVKISCKANGYTFSSYWIEWLRQRPGHGLEWIGEILPGSDNSNYNEKFKGKATFTADTSSNTAYMQLSSLTSEESAVYYCTRGLRRDGSYYYVMEHWGQGTSVTVSS
VL: DIQMTQSPSSLSASLGERVSLTCRASQDIGYSLNWLQQEPDGTIKRLIYATSSLDSGVPKRFSGSRSGSDYSLTISSLESEDFVDYYCLQYASSPWTFGGGTKLEIK
B10: SC16.78 (antibody, V domains shown)
VH: EVKLVESGGGLVKPGGSLKLSCAASGFTFGRYVMSWVRQTPEKKLEWVASITSGGTTYYPDSVKGRFTISRDNARNILYLQMSSLRSEDTAMYYCARVYYHYDDIFAYWGQGTLVTVSA
VL: DIKMTQSPSSMYASLGERVTITCKASQDINSYLSWFQQKPGRSPKTLIYRANRLVDGVPSRFSGSGSGQDYSLTISSLDYEDMGIYYCLQYDEFPFTFGSGTKLEIK
B11: SC16.79 (antibody, V domains shown)
VH: EVQLQQSGPELVKPGASVKISCKTSGYTFTEYTMHWVKQSHGKSLEWIGGINPNNGGTSYNQKFKGKATLTVDKSSSTAYMELRSLTSEDSAVYYCARGPAWFAYWGQGTLVTVSA
VL: DIVMSQSPSSLAVSAGEKVTMSCKSSQSLLNSRTRKNYLAWYQQKPGQSPKLLIYWASTRESGVPDRFTGSGSGTDFTLTISSVQAEDLAVYYCKQSYNLYTFGGGTKLKIK
B12: SC16.80 (antibody, V domains shown)
VH: EVQLQQSGPELVKPGGSKKISCKASGYSFTGYSMNWVKQSHGKNLEWIGLINPYSGGTIYNQKFKGKATLTVDKSSSTAYMELLSLTSEDSAVYYCARRSDYPLVYWGQGTLVTVSA
VL: ETTVTQSPASLSMAIGEKVTIRCITSTDIDDDMIWYQQKPGEPPKLLISEGNTLRPGVPSRFSSSGYGTDFVFTIENMLSEDVADYYCLKRDDLPYTFGGGTQVEIK
B13: SC16.81 (antibody, V domains shown)
VH: QVQLKESGPVLVAPSQSLSITCTVSGFSLTSYGVHWVRQPPGKGLEWLGVIWAGGSTNYNSALMSRLSISKDNSKSQVFLKMNSLQTDDTAMYYCAKQGNFYAMDYWGQGTSVTVSS
VL: QIVLTQSPAIMSASLGERVTLTCTASSSVSSSYLHWYQQKPGSSPKLWIYSTSNLASGVPTRFSGSGSGTSYSLRISSMEAEDAATYYCHQYNRSPLTFGAGTKLELK
B14: SC16.84 (antibody, V domains shown)
VH: EVQLQQSGPELVKPGASMKISCKASGYSFTGYTMNWVKQSHGKNLEWIGLINPYNGGTTYNQKFKGKATLTVDKSSSTAYMELLSLTSEDSAVYYCALGYYGNYRRYFDVWGAGTTVTVSS
VL: DIQMTQSPSSLSASLGGKVTITCKASQDIKKYIAWYQHKPGKGPRLLIHYTSTLEPGIPSRFSGSGSGRDYSFSISNLEPEDIATYYCLQYDILWTFGGGTKLEIK
B15: SC16.101 (antibody, V domains shown)
VL: QIVLTQSPAIMSASLGERVTMTCTASSSVSSSYLHWYQQKPGSSPKLWIYSTSNLASGVPARFSGSESGTSYSLTISNMEAEDAATYYCHQYHRSPFTFGSGTKLEIK
V domain: QVTLKESGPGILQPSQTLSLTCSFSGFSLSTSGMGVGWIRQPSGKGLEWLAHIWWDDVKRYNPALKSRLTISKDASSSQVFLKIASVDTAETATYYCAHILDRAYYFDYWGQGTTLTVTS
B16: SC16.104 (antibody, V domains shown)
VH: QVQLKESGPDLVQPSQTLSLTCTVSGFSLTFYGVHWVRQPPGKGLEWVGTMGWDDKKYYNSALKSRLSISRDTSKNQVFLKLSSLQTEDTAMYYCTRGGTGFDYWGQGTTLTVSS
VL: QIVLSQSPAILSASPGEKVTMTCRASSSVSYIHWYRQKPGSSPKPWIYATSNLASGVPARFSGSGSGTSYSLTISRVEAEDAATYYCQQWSSNPPTFGAGTKLELK
B17: SC16.106 (antibody, V domains shown)
VH: QVQLKQSGPGLVAPSQSLFITCTVSGFSLTSYEINWVRQPPGKGLEWLGVIWTGGSTNYNSALISRLSISKDNSKSLVFLKMNSLQTDDTAIYYCVRGVYAMDYWGQGTSVTVSS
VL: DIKMTQSPSSMYASLGERVTITCKASQDINSYLSWFQQKPGKSPKTLIYRANRLVDGVPSRFSGSGSGQDYSLTISSLEYEDMGIYYCLQYDEFPFTFGSGTKLEIK
B18: SC16.117 (antibody, V domains shown)
VH: QVQLKESGPGLVAPSQSLSITCTVSGFSLTNYGVHWVRQPPGKGLEWLGVIWAGGITNYNSALMSRLSISEDNSKSQVFLKMNSLQTDDTAMYYCARNLGPYAMDYWGQGTSVTVSS
VL: DIQMNQSPSSLSASLGDTITITCHVSQNINVWLSWYQQKPGNIPKLLIQKASNLHTGVPSRFSGSGSGTGFTLTISSLQPEDIATYYCQQGQSYPFTFGSGTKLEIK
B19: SC16.129 (antibody, V domains shown)
VH: QVQLKESGPGLVAPSQSLSITCTVSGFSLTDYGVSWIRQPPGKGLEWLGVIWGGGSTYYNSALKSRLSISKDNSKSQVFLELNSLQTDDTAIYYCAKHYGHYAAYWGQGTLVTVSA
VL: DIQMTQSPASQSASLGESVTITCLASQTIGTWLAWYQQKPGKSPQLLIYAATSLADGVPSRFSGSGSGTKFSFKISSLQAEDFVSYYCQQLYSTPYTFGGGTKLEIK
B20: SC16.131 (antibody, V domains shown)
VH: QVQLKESGPGLVAPSQSLSITCTVSGFSLTNYGVHWVRQPPGKGLEWLGVIWAGGITNYNSALMSRLSISEDNSKSQVFLKMNSLQTDDTAMYYCARNLGPYAMDYWGQGTSVTVSS
VL: DIQMNQSPSSLSASLGDTITITCHVSQNINVWLSWYQQKPGNIPKLLIQKASNLHTGVPSRFSGSGSGTGFTLTISSLQPEDIATYYCQQGQSYPFTFGSGTKLEIK

The binders below were run against DLL3 (UniProt Q9NYJ7) (assay: screening on immobilized DLL3 or 293-hDLL3 cells).

Row | Binder | binding
1 | B1 | binds
2 | B2 | binds
3 | B3 | binds
4 | B4 | binds
5 | B5 | binds
6 | B6 | binds
7 | B7 | binds
8 | B8 | binds
9 | B9 | binds
10 | B10 | binds
11 | B11 | binds
12 | B12 | binds
13 | B13 | binds
14 | B14 | binds
15 | B15 | binds
16 | B16 | binds
17 | B17 | binds

Biological target: T1, human DLL3
Experiment: screening on immobilized DLL3 or 293-hDLL3 cells

Row | Binder | binding
18 | B18 | binds
19 | B19 | binds
20 | B20 | binds
